Chains of the proteins cited; added tags and fusions are not shown. Lines headed by an entry give the natural chain unless they say otherwise; changes in a name come on top.
UniProt P16220: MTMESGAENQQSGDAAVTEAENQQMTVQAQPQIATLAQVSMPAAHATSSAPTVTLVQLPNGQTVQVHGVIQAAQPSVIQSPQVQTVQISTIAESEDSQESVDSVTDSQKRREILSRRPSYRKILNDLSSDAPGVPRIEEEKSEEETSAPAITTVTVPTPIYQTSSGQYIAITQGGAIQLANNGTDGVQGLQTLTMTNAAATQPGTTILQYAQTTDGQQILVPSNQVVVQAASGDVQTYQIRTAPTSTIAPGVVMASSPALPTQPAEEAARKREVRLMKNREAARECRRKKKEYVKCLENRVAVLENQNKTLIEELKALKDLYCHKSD
UniProt Q02447: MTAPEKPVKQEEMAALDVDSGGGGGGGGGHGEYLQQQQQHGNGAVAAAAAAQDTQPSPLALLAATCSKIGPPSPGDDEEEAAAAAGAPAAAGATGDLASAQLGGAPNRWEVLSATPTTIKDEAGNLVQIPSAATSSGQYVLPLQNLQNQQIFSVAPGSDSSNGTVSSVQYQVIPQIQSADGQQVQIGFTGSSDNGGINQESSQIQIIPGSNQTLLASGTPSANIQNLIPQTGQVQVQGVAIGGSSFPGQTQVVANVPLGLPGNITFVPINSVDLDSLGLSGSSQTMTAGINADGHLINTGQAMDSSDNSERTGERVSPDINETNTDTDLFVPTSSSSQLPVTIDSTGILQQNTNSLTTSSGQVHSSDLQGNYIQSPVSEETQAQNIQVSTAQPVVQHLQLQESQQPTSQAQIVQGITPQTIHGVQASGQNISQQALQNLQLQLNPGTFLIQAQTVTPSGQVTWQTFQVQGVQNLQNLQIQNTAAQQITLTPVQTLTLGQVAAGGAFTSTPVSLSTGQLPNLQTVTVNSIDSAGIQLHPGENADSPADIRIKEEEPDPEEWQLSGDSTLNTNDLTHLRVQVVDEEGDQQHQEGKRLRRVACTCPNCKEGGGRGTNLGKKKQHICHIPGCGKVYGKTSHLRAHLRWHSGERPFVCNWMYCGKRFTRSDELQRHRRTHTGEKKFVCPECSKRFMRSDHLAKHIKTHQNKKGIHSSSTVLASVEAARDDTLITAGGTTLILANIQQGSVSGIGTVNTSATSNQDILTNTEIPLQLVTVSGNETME
UniProt P08047, whole entry: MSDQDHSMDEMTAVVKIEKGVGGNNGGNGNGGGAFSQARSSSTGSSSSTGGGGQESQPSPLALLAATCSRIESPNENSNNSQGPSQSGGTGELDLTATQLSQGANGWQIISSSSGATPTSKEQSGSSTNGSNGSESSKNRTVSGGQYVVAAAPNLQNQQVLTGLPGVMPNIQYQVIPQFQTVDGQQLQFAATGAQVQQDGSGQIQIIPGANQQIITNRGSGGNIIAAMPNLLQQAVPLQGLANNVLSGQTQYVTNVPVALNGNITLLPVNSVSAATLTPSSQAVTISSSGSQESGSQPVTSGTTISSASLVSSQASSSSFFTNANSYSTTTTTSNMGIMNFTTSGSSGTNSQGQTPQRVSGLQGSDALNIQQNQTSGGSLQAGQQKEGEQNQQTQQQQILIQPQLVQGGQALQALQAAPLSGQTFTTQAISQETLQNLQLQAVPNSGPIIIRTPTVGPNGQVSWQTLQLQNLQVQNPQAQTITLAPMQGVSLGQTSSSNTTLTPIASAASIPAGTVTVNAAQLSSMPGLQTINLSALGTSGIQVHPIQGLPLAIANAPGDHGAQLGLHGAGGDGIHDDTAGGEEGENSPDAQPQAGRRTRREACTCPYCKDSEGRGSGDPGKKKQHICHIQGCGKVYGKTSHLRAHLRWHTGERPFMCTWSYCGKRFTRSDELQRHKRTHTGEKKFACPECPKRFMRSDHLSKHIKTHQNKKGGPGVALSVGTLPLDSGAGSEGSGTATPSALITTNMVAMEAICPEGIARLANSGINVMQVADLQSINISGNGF
UniProt Q01196, whole entry: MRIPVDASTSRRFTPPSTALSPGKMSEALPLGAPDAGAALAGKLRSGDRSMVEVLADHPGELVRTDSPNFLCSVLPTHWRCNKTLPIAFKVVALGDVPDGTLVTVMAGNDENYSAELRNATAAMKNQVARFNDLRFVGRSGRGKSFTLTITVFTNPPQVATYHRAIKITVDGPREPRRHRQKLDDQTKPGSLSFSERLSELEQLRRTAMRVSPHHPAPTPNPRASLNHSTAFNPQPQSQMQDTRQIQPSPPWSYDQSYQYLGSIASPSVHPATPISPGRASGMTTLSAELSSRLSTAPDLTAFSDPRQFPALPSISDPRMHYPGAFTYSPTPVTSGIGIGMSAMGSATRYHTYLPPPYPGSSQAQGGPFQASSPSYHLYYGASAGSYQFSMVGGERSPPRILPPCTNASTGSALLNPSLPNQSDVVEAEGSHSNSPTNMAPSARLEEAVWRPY
UniProt Q9UJU2, whole entry: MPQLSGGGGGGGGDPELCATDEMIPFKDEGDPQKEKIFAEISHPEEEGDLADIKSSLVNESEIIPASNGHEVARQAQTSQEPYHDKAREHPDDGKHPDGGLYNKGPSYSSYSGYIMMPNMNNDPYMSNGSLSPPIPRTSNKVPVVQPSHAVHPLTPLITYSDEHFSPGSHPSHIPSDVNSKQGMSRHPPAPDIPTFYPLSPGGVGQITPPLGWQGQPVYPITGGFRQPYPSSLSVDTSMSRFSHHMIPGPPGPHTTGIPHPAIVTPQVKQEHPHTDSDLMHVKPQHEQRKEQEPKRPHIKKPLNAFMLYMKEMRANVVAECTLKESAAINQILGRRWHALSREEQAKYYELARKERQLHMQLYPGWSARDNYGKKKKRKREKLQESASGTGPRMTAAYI

In paper PMC3459973:

Assays:
CREB1 = CREB1 (UniProt P16220); experiment: DNA pull-down, SILAC MS; settings: PBB: 150 mM NaCl, 50 mM Tris/HCl pH 8.0, 10 mM MgCl2, 0.5% NP-40, protease inhibitor; 200 ug SILAC nuclear extract, 2 h at 4 C (automated: 8 C); elution 16 mM biotin; protein in an extract; label: desthiobiotin-dATP fill-in
TFAP4 = target: T1, TFAP4 (UniProt Q01664); experiment: DNA pull-down, SILAC MS; settings: PBB: 150 mM NaCl, 50 mM Tris/HCl pH 8.0, 10 mM MgCl2, 0.5% NP-40, protease inhibitor; 200 ug SILAC nuclear extract, 2 h at 4 C (automated: 8 C); elution 16 mM biotin; protein in an extract; label: desthiobiotin-dATP fill-in
T1 sequence (looked up, limits assumed): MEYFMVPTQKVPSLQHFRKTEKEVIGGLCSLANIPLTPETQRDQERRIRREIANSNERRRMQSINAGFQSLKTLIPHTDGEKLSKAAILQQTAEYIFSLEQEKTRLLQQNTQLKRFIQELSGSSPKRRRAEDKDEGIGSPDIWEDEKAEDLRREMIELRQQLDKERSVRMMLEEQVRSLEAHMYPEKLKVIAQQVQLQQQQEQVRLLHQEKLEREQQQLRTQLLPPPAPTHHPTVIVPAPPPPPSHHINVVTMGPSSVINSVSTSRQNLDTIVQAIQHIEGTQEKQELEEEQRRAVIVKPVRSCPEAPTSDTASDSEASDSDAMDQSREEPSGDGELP

SP3 = SP3 (UniProt Q02447); experiment: DNA pull-down, SILAC MS; settings: PBB: 150 mM NaCl, 50 mM Tris/HCl pH 8.0, 10 mM MgCl2, 0.5% NP-40, protease inhibitor; 200 ug SILAC nuclear extract, 2 h at 4 C (automated: 8 C); elution 16 mM biotin; protein in an extract; label: desthiobiotin-dATP fill-in
SP1 = SP1 (UniProt P08047); experiment: DNA pull-down, SILAC MS; settings: PBB: 150 mM NaCl, 50 mM Tris/HCl pH 8.0, 10 mM MgCl2, 0.5% NP-40, protease inhibitor; 200 ug SILAC nuclear extract, 2 h at 4 C (automated: 8 C); elution 16 mM biotin; protein in an extract; label: desthiobiotin-dATP fill-in
RUNX1 = RUNX1 (UniProt Q01196); experiment: DNA pull-down, immunoblot; settings: PBB: 150 mM NaCl, 50 mM Tris/HCl pH 8.0, 10 mM MgCl2, 0.5% NP-40, protease inhibitor, 200 ug SILAC nuclear extract, 2 h at 4 C (automated: 8 C), elution 16 mM biotin, protein in an extract, label: desthiobiotin-dATP fill-in
RUNX1 + CBFB = experiment: DNA pull-down, SILAC MS; settings: PBB: 150 mM NaCl, 50 mM Tris/HCl pH 8.0, 10 mM MgCl2, 0.5% NP-40, protease inhibitor; 200 ug SILAC nuclear extract, 2 h at 4 C (automated: 8 C); elution 16 mM biotin; protein in an extract; label: desthiobiotin-dATP fill-in
LEF1 = LEF1 (UniProt Q9UJU2); experiment: DNA pull-down, SILAC MS; settings: PBB: 150 mM NaCl, 50 mM Tris/HCl pH 8.0, 10 mM MgCl2, 0.5% NP-40, protease inhibitor; 200 ug SILAC nuclear extract, 2 h at 4 C (automated: 8 C); elution 16 mM biotin; protein in an extract; label: desthiobiotin-dATP fill-in
TFAP2 (AP-2) = experiment: DNA pull-down, SILAC MS and immunoblot; settings: PBB: 150 mM NaCl, 50 mM Tris/HCl pH 8.0, 10 mM MgCl2, 0.5% NP-40, protease inhibitor; 200 ug SILAC nuclear extract, 2 h at 4 C (automated: 8 C); elution 16 mM biotin; protein in an extract; label: desthiobiotin-dATP fill-in

“TTGAAAGAGGGCTCATAATTCCACGTCAGGGAAGAGCCGCTGGC / AAGCCAGCGGCTCTTCCCTGACGTGGAATTATGAGCCCTCTTTC [rs12722522*C]”: binds (CREB1); binds (TFAP4).
“AAGGCTTGGGCTCCTCCCCCCAGCCAAC / TTGTTGGCTGGGGGGAGGAGCCCAAGCC [rs509813*C]”: binds (SP3); binds (SP1).
“TTGAAAAGAATAGAACCCACCCACTGAAACTATCAGAGATCAAATG / AACATTTGATCTCTGATAGTTTCAGTGGGTGGGTTCTATTCTTTTC [rs12722508*T]”: binds more weakly (RUNX1; legend prints A- and G-allele, text: RUNX1 binds both alleles); binds more weakly (RUNX1 + CBFB).
“TTGAACCCAGAAGCGACATTAGCAAGGGGTTCGTTTCACGGAATC / AAGATTCCGTGAAACGAACCCCTTGCTAATGTCGCTTCTGGGTTC [rs41295061*C]”: binds more weakly (LEF1).
“TTGAAAAGAATAGAACCCACCCACAGAAACTATCAGAGATCAAATG / AACATTTGATCTCTGATAGTTTCTGTGGGTGGGTTCTATTCTTTTC [rs12722508*A]”: binds (RUNX1); binds (RUNX1 + CBFB).
“TTGAAAGAGGGCTCATAATTCCATGTCAGGGAAGAGCCGCTGGC / AAGCCAGCGGCTCTTCCCTGACATGGAATTATGAGCCCTCTTTC [rs12722522*T]”: binds more weakly (CREB1); binds more weakly (TFAP4).
“AAGGCTTGGGCTCCTCCCGCCAGCCAAC / TTGTTGGCTGGCGGGAGGAGCCCAAGCC [rs509813*G]”: binds more weakly (SP3); binds more weakly (SP1).
“TTGAACCCAGAAGCGACATTAGAAAGGGGTTCGTTTCACGGAATC / AAGATTCCGTGAAACGAACCCCTTTCTAATGTCGCTTCTGGGTTC [rs41295061*A]” gave a binding signal (fold over C allele) (LEF1) of 8.
“AACAAAACTGCAGGATCGAACTGACCGCACGGGGCACGTGTC / TTGACACGTGCCCCGTGCGGTCAGTTCGATCCTGCAGTTTTG [AP2_A]”: no binding (TFAP2 (AP-2)).

The exact form of at least one protein or probe is not confirmed. At least one result comes from cells or an extract, where the contact may be indirect. For part of these data: Negatives hold for the conditions tested. For part of these data: Weaker means in comparison with the reference protein, sequence or condition of that experiment. For part of these data: At least one verdict was read from the data and is not stated in words by the source. For part of these data: Tags and fusion partners may be left off the protein sequences shown. For part of these data: Whether high values mean tight binding is not given here for every scale.
